Results are given in words; binding and its absence hold for the method and conditions named. In cells and extracts the contact can be indirect. These calls come from enrichment with a bait or labelling near it, and not all partners need be listed.
Target: Integrin beta-3 (human (endogenous in HTR-8/SVneo)) (UniProt P05106)
Test: affinity purification with mass spectrometry; HTR-8/SVneo cell lysate incubated with anti-ITGB3 antibody or nonimmune IgG at 4 °C overnight, protein A/G beads, washes in TBS with 0.05% Tween-20, glycine pH 2.7 elution; SDS-PAGE, silver stain, in-gel digest of the enriched band, LC-MS/MS; proteins specific to the ITGB3 group, abundance threshold > 20

Protein sequences, listed by entry. Tags and fused reporters are not part of them. Residues count along the entry.
UniProt P05106, residues 27-788: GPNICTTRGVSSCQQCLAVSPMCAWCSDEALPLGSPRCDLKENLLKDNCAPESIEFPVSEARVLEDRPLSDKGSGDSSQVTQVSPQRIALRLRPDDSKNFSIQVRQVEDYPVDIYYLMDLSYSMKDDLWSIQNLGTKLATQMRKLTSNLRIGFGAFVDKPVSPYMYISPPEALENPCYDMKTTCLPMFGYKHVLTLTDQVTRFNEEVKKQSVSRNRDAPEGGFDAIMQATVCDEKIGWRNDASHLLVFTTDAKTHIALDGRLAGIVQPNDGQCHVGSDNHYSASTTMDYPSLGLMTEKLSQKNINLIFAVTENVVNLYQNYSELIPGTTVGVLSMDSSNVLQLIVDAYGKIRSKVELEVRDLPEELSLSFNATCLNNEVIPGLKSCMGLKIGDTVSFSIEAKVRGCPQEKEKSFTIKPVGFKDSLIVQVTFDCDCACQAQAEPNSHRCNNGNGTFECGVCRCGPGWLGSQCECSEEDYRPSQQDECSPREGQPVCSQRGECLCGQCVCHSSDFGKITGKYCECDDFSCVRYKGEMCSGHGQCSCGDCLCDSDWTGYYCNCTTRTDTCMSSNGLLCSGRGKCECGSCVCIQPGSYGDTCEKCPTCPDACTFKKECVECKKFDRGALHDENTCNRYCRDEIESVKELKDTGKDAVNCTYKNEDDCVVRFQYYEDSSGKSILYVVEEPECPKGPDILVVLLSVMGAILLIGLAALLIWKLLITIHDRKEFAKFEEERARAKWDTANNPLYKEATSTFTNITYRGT
UniProt P01009, residues 25-418: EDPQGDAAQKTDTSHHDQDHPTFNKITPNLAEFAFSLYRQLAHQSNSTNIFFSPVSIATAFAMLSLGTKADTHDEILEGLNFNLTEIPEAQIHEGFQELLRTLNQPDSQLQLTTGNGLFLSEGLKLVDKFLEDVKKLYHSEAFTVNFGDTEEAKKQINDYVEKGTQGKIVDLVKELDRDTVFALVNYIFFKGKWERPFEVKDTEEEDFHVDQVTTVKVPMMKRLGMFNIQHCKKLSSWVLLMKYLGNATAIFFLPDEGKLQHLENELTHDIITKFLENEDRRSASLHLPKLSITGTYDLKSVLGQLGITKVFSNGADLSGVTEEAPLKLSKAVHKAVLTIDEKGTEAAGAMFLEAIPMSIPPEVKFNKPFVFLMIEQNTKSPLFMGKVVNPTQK
UniProt P08123, residues 80-1119: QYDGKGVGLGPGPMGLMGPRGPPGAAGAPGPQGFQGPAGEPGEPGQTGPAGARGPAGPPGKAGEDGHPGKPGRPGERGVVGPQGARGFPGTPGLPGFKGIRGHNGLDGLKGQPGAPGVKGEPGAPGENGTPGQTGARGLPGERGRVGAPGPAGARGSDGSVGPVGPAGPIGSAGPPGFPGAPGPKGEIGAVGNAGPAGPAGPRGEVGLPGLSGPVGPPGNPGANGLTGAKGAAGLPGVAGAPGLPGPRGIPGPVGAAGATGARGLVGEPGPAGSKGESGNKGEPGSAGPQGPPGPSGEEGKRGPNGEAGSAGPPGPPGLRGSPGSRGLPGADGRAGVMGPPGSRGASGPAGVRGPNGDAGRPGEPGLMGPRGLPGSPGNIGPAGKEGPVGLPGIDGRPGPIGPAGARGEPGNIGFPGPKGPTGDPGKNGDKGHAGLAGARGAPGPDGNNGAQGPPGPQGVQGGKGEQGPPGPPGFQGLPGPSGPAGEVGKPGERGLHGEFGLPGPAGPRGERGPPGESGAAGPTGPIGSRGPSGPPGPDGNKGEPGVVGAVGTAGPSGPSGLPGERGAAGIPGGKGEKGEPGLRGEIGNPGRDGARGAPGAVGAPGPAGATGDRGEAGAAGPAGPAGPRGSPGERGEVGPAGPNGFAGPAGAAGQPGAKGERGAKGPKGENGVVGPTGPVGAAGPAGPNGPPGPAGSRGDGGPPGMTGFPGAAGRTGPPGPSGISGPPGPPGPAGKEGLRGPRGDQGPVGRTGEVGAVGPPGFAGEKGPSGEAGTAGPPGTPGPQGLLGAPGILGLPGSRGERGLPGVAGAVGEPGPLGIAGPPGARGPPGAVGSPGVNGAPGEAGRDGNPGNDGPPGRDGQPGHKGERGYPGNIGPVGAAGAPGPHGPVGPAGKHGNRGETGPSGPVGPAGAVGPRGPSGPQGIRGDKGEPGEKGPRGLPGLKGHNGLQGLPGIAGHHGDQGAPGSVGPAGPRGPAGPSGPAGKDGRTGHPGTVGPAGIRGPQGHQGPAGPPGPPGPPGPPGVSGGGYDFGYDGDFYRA
UniProt Q8TCU5, residues 24-1115: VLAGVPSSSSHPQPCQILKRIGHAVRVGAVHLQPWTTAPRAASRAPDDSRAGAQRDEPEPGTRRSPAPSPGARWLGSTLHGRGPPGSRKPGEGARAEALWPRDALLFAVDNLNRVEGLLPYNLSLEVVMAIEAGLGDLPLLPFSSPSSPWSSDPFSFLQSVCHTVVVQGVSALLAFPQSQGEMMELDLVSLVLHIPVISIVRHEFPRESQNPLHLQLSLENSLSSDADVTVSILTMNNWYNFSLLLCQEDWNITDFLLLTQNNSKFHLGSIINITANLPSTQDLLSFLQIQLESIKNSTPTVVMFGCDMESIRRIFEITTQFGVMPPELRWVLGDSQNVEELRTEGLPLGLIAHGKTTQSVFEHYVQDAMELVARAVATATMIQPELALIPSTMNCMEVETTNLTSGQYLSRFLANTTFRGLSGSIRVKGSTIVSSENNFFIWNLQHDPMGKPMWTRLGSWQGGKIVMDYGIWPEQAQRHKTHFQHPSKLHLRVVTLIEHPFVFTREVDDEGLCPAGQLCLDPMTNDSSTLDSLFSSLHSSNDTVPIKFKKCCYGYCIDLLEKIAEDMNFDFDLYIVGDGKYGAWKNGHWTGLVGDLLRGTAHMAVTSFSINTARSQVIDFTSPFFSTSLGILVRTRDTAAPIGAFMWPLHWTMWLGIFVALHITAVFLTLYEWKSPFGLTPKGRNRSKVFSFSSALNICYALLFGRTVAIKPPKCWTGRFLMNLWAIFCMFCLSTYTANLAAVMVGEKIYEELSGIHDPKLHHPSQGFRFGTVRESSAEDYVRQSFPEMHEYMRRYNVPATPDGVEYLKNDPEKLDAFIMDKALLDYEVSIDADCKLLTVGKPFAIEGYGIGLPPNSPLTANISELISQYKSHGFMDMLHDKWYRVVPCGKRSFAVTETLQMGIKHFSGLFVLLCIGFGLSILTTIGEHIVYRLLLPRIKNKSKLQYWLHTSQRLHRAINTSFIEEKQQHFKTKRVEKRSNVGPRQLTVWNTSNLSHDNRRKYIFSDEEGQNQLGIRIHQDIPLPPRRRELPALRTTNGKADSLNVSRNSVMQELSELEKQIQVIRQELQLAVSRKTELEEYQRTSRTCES
UniProt P04406: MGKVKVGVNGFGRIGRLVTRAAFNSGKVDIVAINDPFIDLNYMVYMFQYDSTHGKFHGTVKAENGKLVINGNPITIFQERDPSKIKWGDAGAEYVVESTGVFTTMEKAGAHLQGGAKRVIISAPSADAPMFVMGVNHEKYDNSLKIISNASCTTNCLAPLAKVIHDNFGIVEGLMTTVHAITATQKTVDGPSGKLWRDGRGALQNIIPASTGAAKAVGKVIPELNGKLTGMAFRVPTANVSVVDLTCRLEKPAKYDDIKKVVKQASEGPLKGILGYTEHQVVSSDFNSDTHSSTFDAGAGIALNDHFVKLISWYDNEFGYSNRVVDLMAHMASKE
UniProt Q9H583: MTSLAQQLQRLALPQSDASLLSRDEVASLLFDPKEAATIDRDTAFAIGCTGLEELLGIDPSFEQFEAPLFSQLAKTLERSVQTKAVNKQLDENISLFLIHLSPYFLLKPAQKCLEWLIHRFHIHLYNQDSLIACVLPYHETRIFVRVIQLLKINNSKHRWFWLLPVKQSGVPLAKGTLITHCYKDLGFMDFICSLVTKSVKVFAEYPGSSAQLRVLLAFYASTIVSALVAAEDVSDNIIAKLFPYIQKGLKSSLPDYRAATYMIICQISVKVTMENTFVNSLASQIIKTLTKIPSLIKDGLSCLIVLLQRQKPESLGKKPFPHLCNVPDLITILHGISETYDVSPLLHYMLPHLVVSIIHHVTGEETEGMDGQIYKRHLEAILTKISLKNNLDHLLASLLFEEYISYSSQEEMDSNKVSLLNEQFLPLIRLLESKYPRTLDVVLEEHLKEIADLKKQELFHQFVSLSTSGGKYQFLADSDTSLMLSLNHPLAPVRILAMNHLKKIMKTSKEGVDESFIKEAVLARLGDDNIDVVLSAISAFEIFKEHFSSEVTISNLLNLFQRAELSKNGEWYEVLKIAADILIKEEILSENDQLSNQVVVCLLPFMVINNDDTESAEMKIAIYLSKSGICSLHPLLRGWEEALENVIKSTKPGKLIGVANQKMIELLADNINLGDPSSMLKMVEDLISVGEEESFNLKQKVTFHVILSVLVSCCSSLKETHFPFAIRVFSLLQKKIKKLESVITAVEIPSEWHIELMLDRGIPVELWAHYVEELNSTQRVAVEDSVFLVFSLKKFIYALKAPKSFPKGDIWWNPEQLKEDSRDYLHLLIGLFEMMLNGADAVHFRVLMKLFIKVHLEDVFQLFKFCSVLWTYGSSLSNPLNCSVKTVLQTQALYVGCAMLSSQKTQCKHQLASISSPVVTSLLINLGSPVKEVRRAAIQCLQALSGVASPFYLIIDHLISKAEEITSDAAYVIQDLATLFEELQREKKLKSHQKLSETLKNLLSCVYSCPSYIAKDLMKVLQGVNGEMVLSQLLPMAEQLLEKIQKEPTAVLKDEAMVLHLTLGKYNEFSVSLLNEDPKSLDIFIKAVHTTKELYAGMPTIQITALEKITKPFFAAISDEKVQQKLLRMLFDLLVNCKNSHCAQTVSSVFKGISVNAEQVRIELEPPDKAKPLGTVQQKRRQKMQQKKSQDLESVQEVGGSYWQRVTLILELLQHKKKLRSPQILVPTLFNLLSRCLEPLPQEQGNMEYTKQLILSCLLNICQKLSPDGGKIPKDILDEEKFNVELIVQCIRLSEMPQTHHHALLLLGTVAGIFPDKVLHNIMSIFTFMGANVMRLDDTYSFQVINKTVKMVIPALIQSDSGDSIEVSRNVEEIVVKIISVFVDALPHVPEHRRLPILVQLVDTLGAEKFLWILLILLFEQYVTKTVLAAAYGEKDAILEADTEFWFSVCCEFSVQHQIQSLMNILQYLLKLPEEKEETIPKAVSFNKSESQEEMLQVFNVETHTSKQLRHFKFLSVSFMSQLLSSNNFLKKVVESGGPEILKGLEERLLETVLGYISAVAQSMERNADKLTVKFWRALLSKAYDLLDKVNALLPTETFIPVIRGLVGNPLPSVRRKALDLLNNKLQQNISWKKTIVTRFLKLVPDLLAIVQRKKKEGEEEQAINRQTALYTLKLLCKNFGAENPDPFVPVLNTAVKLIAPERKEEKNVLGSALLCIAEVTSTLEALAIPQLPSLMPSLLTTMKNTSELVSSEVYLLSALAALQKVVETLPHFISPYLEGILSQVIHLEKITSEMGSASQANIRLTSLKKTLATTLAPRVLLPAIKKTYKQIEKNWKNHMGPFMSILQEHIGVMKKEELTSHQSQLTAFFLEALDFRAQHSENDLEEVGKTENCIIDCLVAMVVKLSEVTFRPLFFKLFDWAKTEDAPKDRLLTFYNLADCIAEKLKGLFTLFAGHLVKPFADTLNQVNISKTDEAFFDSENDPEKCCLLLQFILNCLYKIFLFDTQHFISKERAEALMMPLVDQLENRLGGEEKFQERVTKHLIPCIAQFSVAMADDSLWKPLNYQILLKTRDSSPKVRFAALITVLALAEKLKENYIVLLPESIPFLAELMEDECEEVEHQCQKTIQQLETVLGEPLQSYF
UniProt P02042: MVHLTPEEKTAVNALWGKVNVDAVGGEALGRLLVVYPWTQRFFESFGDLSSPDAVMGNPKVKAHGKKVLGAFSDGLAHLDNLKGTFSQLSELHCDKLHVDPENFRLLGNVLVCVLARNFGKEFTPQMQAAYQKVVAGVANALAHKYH
UniProt Q01546: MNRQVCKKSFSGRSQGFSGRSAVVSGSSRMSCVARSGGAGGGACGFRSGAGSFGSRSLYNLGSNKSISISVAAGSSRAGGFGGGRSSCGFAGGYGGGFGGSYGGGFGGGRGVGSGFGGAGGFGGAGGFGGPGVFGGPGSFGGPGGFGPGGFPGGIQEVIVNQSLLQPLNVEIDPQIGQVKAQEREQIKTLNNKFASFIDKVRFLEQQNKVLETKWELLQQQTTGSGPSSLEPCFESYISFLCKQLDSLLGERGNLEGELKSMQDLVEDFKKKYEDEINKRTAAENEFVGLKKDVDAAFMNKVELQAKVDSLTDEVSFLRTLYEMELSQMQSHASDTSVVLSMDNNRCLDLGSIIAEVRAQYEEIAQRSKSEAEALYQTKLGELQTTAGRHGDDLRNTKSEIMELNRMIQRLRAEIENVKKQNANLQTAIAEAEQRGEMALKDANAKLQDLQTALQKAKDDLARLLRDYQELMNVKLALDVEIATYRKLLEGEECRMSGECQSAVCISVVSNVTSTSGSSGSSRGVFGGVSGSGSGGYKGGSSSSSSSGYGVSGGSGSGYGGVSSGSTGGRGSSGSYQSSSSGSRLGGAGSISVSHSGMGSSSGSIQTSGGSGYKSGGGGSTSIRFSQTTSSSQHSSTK

Substance	binding
Alpha-1-antitrypsin (from UniProt P01009 25-418)	binds
Apolipoprotein A-I (from UniProt P02647 19-267)	binds
Apolipoprotein E (from UniProt P02649 19-317)	binds
Chromodomain-helicase-DNA-binding protein 9 (from UniProt Q3L8U1 1-2897)	binds
Collagen alpha-2(I) chain (from UniProt P08123 80-1119)	binds
Desmoplakin (from UniProt P15924 1-2871)	binds
E3 ubiquitin-protein ligase UBR4 (from UniProt Q5T4S7 1-5183)	binds
Fer-1-like protein 6 (from UniProt Q2WGJ9 1-1857)	binds
Fibrinogen beta chain (from UniProt P02675 45-491)	binds
Glutamate receptor ionotropic, NMDA 3 A (from UniProt Q8TCU5 24-1115)	binds
Glutamyl aminopeptidase (from UniProt Q07075 1-957)	binds
Glyceraldehyde-3-phosphate dehydrogenase (from UniProt P04406 1-335)	binds
HEAT repeat-containing protein 1 (from UniProt Q9H583 1-2144)	binds
Heat shock protein beta-1 (from UniProt P04792 1-205)	binds
Hemoglobin subunit alpha (from UniProt P69905 1-142)	binds
Hemoglobin subunit delta (from UniProt P02042 1-147)	binds
Hemoglobin subunit gamma-1 (from UniProt P69891 1-147)	binds
Histone H1.3 (from UniProt P16402 1-221)	binds
Immunoglobulin heavy constant alpha 1 (from UniProt P01876 1-398)	binds
Keratin, type I cytoskeletal 17 (from UniProt Q04695 1-432)	binds
Keratin, type II cytoskeletal 2 oral (from UniProt Q01546 1-638)	binds
Keratin, type II cytoskeletal 3 (from UniProt P12035 1-628)	binds
POTE ankyrin domain family member J (from UniProt P0CG39 1-1038)	binds
Serine/arginine repetitive matrix protein 2 (from UniProt Q9UQ35 1-2752)	binds
Tubulin alpha-3 C chain (from UniProt P0DPH7 1-450)	binds
Tubulin beta-2B chain (from UniProt Q9BVA1 1-445)	binds

— paper PMC11670450
